Data: publication PMC7966362
These are yes or no findings as the source states them, for the method shown. In cells and extracts the contact can be indirect. Some results given as binding are weak or reduced against the parent protein; the word gives no strength. Tags and fused reporters may be left off the sequences shown.

By UniProt entry, the sequences of proteins in these tests, tags left out.
UniProt Q80SW1: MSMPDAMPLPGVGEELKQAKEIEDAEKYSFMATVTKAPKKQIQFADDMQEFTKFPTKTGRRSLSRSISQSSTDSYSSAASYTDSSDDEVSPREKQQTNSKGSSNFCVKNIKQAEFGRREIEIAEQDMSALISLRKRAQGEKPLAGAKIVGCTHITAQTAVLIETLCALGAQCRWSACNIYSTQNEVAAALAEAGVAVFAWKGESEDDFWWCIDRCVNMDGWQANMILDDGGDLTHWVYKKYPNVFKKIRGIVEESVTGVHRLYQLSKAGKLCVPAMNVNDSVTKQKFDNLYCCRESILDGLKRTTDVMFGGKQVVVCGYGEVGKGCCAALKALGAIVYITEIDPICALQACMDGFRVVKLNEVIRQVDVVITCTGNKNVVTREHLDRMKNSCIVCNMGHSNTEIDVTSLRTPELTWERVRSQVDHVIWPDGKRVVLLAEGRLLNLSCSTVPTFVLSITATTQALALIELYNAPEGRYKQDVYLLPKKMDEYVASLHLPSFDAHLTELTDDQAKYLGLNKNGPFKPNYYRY

Columns and labels:
[1] = target: T1, HA-tagged AE2 wild type (full length, mouse) (mouse) (UniProt P13808); assay: co-IP; HEK 293T cells transfected with tagged constructs; lysis buffer 10 mM HEPES pH 7.4, 100 mM NaCl, 2 mM EDTA, 0.1% Triton X-100, 10 mM sodium fluoride; antibodies and Protein G overnight at 4 °C; immunoblot
T1 sequence: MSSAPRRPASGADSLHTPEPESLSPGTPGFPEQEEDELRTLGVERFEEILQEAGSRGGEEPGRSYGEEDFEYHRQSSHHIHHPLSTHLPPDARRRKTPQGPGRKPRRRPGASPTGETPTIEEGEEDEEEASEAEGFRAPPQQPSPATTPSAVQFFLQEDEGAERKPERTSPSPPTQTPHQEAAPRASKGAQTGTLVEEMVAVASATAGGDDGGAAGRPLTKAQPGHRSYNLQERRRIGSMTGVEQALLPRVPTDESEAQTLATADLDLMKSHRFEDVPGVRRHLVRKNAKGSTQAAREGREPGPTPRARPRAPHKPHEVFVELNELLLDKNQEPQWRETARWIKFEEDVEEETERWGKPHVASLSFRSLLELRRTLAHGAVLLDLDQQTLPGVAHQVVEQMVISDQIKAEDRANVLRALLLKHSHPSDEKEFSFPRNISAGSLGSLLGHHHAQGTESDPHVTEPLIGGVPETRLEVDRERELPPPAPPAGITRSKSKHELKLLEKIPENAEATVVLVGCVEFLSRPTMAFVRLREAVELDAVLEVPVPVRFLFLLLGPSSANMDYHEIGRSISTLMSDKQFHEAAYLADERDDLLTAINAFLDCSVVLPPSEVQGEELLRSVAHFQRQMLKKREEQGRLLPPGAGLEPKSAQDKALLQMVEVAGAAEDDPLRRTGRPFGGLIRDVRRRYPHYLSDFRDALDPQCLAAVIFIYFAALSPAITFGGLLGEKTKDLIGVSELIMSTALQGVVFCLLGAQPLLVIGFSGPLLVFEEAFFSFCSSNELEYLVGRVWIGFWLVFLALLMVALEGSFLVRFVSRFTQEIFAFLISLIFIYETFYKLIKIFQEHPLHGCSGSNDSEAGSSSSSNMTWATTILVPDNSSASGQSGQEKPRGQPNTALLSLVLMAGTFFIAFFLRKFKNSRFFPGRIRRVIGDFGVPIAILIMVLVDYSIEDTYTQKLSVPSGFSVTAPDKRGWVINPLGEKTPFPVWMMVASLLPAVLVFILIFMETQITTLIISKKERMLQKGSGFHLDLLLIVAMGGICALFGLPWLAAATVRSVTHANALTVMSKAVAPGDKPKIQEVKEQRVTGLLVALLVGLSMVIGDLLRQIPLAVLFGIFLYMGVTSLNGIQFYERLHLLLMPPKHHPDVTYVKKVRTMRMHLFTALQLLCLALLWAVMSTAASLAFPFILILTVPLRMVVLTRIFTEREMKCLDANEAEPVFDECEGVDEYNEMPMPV

[2] = target: HA-tagged IRBIT, in IRBIT/L-IRBIT DKO cells (UniProt Q80SW1); assay: co-IP; IRBIT/L-IRBIT double knockout B16-F10 cells transfected with GFP-tagged AE2 and HA-tagged IRBIT and/or FLAG-tagged L-IRBIT; IP with anti-HA or anti-FLAG antibody; immunoblot
[3] = target: FLAG-tagged IRBIT wild type (UniProt Q80SW1); assay: co-IP; HEK 293T cells transfected with tagged constructs; lysis buffer 10 mM HEPES pH 7.4, 100 mM NaCl, 2 mM EDTA, 0.1% Triton X-100, 10 mM sodium fluoride; antibodies and Protein G overnight at 4 °C; immunoblot

With “FLAG-tagged IRBIT wild type (from UniProt Q80SW1 1-530)” the binding [1] was “binds”.

B1: GFP-tagged AE2 wild type, in IRBIT/L-IRBIT DKO cells (protein, UniProt P13808 1-1237)
chain: MSSAPRRPASGADSLHTPEPESLSPGTPGFPEQEEDELRTLGVERFEEILQEAGSRGGEEPGRSYGEEDFEYHRQSSHHIHHPLSTHLPPDARRRKTPQGPGRKPRRRPGASPTGETPTIEEGEEDEEEASEAEGFRAPPQQPSPATTPSAVQFFLQEDEGAERKPERTSPSPPTQTPHQEAAPRASKGAQTGTLVEEMVAVASATAGGDDGGAAGRPLTKAQPGHRSYNLQERRRIGSMTGVEQALLPRVPTDESEAQTLATADLDLMKSHRFEDVPGVRRHLVRKNAKGSTQAAREGREPGPTPRARPRAPHKPHEVFVELNELLLDKNQEPQWRETARWIKFEEDVEEETERWGKPHVASLSFRSLLELRRTLAHGAVLLDLDQQTLPGVAHQVVEQMVISDQIKAEDRANVLRALLLKHSHPSDEKEFSFPRNISAGSLGSLLGHHHAQGTESDPHVTEPLIGGVPETRLEVDRERELPPPAPPAGITRSKSKHELKLLEKIPENAEATVVLVGCVEFLSRPTMAFVRLREAVELDAVLEVPVPVRFLFLLLGPSSANMDYHEIGRSISTLMSDKQFHEAAYLADERDDLLTAINAFLDCSVVLPPSEVQGEELLRSVAHFQRQMLKKREEQGRLLPPGAGLEPKSAQDKALLQMVEVAGAAEDDPLRRTGRPFGGLIRDVRRRYPHYLSDFRDALDPQCLAAVIFIYFAALSPAITFGGLLGEKTKDLIGVSELIMSTALQGVVFCLLGAQPLLVIGFSGPLLVFEEAFFSFCSSNELEYLVGRVWIGFWLVFLALLMVALEGSFLVRFVSRFTQEIFAFLISLIFIYETFYKLIKIFQEHPLHGCSGSNDSEAGSSSSSNMTWATTILVPDNSSASGQSGQEKPRGQPNTALLSLVLMAGTFFIAFFLRKFKNSRFFPGRIRRVIGDFGVPIAILIMVLVDYSIEDTYTQKLSVPSGFSVTAPDKRGWVINPLGEKTPFPVWMMVASLLPAVLVFILIFMETQITTLIISKKERMLQKGSGFHLDLLLIVAMGGICALFGLPWLAAATVRSVTHANALTVMSKAVAPGDKPKIQEVKEQRVTGLLVALLVGLSMVIGDLLRQIPLAVLFGIFLYMGVTSLNGIQFYERLHLLLMPPKHHPDVTYVKKVRTMRMHLFTALQLLCLALLWAVMSTAASLAFPFILILTVPLRMVVLTRIFTEREMKCLDANEAEPVFDECEGVDEYNEMPMPV
With B1 the binding [2] was “binds”.

B2: HA-tagged AE2 wild type (full length, mouse) (protein, UniProt P13808 1-1237)
chain: MSSAPRRPASGADSLHTPEPESLSPGTPGFPEQEEDELRTLGVERFEEILQEAGSRGGEEPGRSYGEEDFEYHRQSSHHIHHPLSTHLPPDARRRKTPQGPGRKPRRRPGASPTGETPTIEEGEEDEEEASEAEGFRAPPQQPSPATTPSAVQFFLQEDEGAERKPERTSPSPPTQTPHQEAAPRASKGAQTGTLVEEMVAVASATAGGDDGGAAGRPLTKAQPGHRSYNLQERRRIGSMTGVEQALLPRVPTDESEAQTLATADLDLMKSHRFEDVPGVRRHLVRKNAKGSTQAAREGREPGPTPRARPRAPHKPHEVFVELNELLLDKNQEPQWRETARWIKFEEDVEEETERWGKPHVASLSFRSLLELRRTLAHGAVLLDLDQQTLPGVAHQVVEQMVISDQIKAEDRANVLRALLLKHSHPSDEKEFSFPRNISAGSLGSLLGHHHAQGTESDPHVTEPLIGGVPETRLEVDRERELPPPAPPAGITRSKSKHELKLLEKIPENAEATVVLVGCVEFLSRPTMAFVRLREAVELDAVLEVPVPVRFLFLLLGPSSANMDYHEIGRSISTLMSDKQFHEAAYLADERDDLLTAINAFLDCSVVLPPSEVQGEELLRSVAHFQRQMLKKREEQGRLLPPGAGLEPKSAQDKALLQMVEVAGAAEDDPLRRTGRPFGGLIRDVRRRYPHYLSDFRDALDPQCLAAVIFIYFAALSPAITFGGLLGEKTKDLIGVSELIMSTALQGVVFCLLGAQPLLVIGFSGPLLVFEEAFFSFCSSNELEYLVGRVWIGFWLVFLALLMVALEGSFLVRFVSRFTQEIFAFLISLIFIYETFYKLIKIFQEHPLHGCSGSNDSEAGSSSSSNMTWATTILVPDNSSASGQSGQEKPRGQPNTALLSLVLMAGTFFIAFFLRKFKNSRFFPGRIRRVIGDFGVPIAILIMVLVDYSIEDTYTQKLSVPSGFSVTAPDKRGWVINPLGEKTPFPVWMMVASLLPAVLVFILIFMETQITTLIISKKERMLQKGSGFHLDLLLIVAMGGICALFGLPWLAAATVRSVTHANALTVMSKAVAPGDKPKIQEVKEQRVTGLLVALLVGLSMVIGDLLRQIPLAVLFGIFLYMGVTSLNGIQFYERLHLLLMPPKHHPDVTYVKKVRTMRMHLFTALQLLCLALLWAVMSTAASLAFPFILILTVPLRMVVLTRIFTEREMKCLDANEAEPVFDECEGVDEYNEMPMPV
B2 was tested, and the binding [3] was “binds”.
